Reference: the supplement of paper PMC12823440, “Inhibitors supercharge kinase turnover through native proteolytic circuits” (Nature, 2025)
Structures can show the parent of a compound that is named as a salt. This is one part of the list. The calls rarely recur for the same compound in another form.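 Kinases were expressed as nanoluciferase fusions in K562 cells and luminescence was read every 4 h between 2 and 18 h as percent of control, DMSO set to 100% and a positive control to 0%. A time point counts as decreased when the signal drops significantly (2 sigma). The hit call is the authors' own, does not follow from the count of time points alone, and its rule is not shown.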

The chains behind the UniProt entries cited, without tags or fusion partners. Where a name states a change or a piece, a line headed by the entry shows the natural chain unless it says otherwise.
UniProt P51451: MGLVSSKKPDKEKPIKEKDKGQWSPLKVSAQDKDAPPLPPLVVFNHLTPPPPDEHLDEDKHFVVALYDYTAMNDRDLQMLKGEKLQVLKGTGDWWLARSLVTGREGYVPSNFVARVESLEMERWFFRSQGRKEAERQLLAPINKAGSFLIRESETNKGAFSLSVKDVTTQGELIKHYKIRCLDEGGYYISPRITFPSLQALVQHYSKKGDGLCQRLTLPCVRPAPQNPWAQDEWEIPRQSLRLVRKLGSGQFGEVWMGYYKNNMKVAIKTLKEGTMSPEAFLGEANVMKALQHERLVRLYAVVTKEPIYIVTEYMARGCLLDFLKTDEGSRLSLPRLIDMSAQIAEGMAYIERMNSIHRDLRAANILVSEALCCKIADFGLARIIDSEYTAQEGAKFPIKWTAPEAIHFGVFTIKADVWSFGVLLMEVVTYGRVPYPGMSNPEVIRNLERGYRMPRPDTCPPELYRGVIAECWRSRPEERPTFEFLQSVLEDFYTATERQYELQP

The compounds below were run against BLK (UniProt P51451) (assay: number of time points (of 5) at which kinase-Nluc abundance scored as decreased, DMSO-normalised (count); higher = more persistent destabilization). Details: K562; 2-18 h.

**Q.** `NCc1ccc(Nc2ncc(F)c(Nc3ccccc3)n2)cc1` (10 µM) was tested. Which “number of time points” value did it give?
**A.** Its value is 0.

**Q.** For `C=C(C)C(=O)Nc1cccc(-c2ncnc3[nH]cc(C(=O)OCC)c23)c1` (10 µM), which “number of time points” value is on record?
**A.** The value was 0.

**Q.** With `CCOc1cc(C(=O)N2CCC(N3CCN(C)CC3)CC2)ccc1Nc1ncc2c(n1)N(C1CCCC1)c1ccccc1C(=O)N2C` (10 µM) as the compound, how does the “number of time points” value read?
**A.** The value was 0.

**Q.** How did the “number of time points” value turn out when `CCOc1ccc(C(=O)Nc2ncc([N+](=O)[O-])s2)cc1` (10 µM) was run?
**A.** Its value is 0.

**Q.** Which “number of time points” value does the source give for `CNC(=O)Nc1ccc(-c2cc(-c3ccnc(Nc4ccc(C)c(S(=O)(=O)N(C)C)c4)n3)ccn2)cc1` [hSMG-1 inhibitor 11e] (2.5 µM) here?
**A.** The value was 0.

**Q.** Which “number of time points” value does the source give for `CNC(=O)c1ccc(-c2cnc3cnc(C(=O)N(C)c4ccc(Cl)cc4)cn23)cc1` (2.5 µM) here?
**A.** The value was 0.

**Q.** With `COc1cccc(-n2c(=O)[nH]c3cc(Cl)n(-c4ccc(-c5cccc(OC)c5O)cc4)c3c2=O)c1` (2.5 µM) as the compound, how does the “number of time points” value read?
**A.** The value was 0.

**Q.** `O=C(Nc1cccnc1)c1cc(C(=O)c2c(F)cccc2Br)c[nH]1` (10 µM) was tested. Which “number of time points” value did it give?
**A.** Its value is 0.

**Q.** Which “number of time points” value does the source give for `CN(CC(=O)N(Cc1ccc(C2CCCCC2)cc1)c1ccc(C(=O)O)cc1)S(=O)(=O)c1c(F)c(F)c(F)c(F)c1F` (2.5 µM) here?
**A.** The value was 0.

**Q.** For `COc1c(NC(=O)C(=O)c2ccc(OCCN3CCOCC3)c3ccccc23)cc(C(C)(C)C)cc1NS(C)(=O)=O` (2.5 µM), which “number of time points” value is on record?
**A.** Its value is 0.

**Q.** `CC(C)CC1(O)CCN(C(=O)c2ccc(NS(=O)(=O)c3cccc4nccnc34)cc2)CC1` (10 µM) was tested. Which “number of time points” value did it give?
**A.** Its value is 0.

**Q.** How did the “number of time points” value turn out when `O=C(/C=C/c1ccc(O)c(O)c1)c1ccc(O[C@@H]2O[C@H](CO)[C@@H](O)[C@H](O)[C@H]2O)c(O)c1O` [Marein] (10 µM) was run?
**A.** Its value is 0.

**Q.** Which “number of time points” value does the source give for `Cc1cc2cc(Nc3ccnc(Nc4ccc5[nH]c(C)cc5c4)n3)ccc2[nH]1` (2.5 µM) here?
**A.** The value was 2.

**Q.** Which “number of time points” value does the source give for `Cc1cc(Nc2cc(Cl)nc(Oc3ccc([N+](=O)[O-])cc3)n2)n[nH]1` [Autophinib] (2.5 µM) here?
**A.** The value was 0.

**Q.** For `Fc1ccc(-c2nc(-c3ccccc3F)[nH]c2-c2ccncc2)cc1` (2.5 µM), which “number of time points” value is on record?
**A.** The value was 0.

**Q.** Which “number of time points” value does the source give for `OC(COc1ccc(C(F)(F)F)cc1)CN(Cc1ccccc1)Cc1ccccc1` (configuration not stated) (2.5 µM) here?
**A.** The value was 0.

**Q.** Which “number of time points” value does the source give for `COc1ccc2[nH]cc(/C=C3\C(=O)Nc4ccc(NC(=O)CCN5CCCCC5)cc43)c2c1` (2.5 µM) here?
**A.** The value was 0.

**Q.** How did the “number of time points” value turn out when `CS(=O)(=O)c1ccc(-c2noc(C(F)(F)F)c2-c2ccccc2)cc1` (10 µM) was run?
**A.** Its value is 0.

**Q.** For `COCCO[C@@H]1[C@H](O)[C@@H](CO)O[C@H]1n1cnc2c(=O)[nH]c(N)nc21` [2′-O-(2-Methoxyethyl)guanosine] (10 µM), which “number of time points” value is on record?
**A.** Its value is 0.

**Q.** `Cn1cnc(-c2cc3nccc(Oc4ccc(NC(=S)NC(=O)Cc5ccccc5)cc4F)c3s2)c1` [MGCD-265 analog] (10 µM) was tested. Which “number of time points” value did it give?
**A.** Its value is 0.

**Q.** Which “number of time points” value does the source give for `Cc1noc(C)c1-c1ccc(-c2cc(C(N)=O)c(NC(N)=O)s2)c(O[C@H]2CCNC2)c1` (10 µM) here?
**A.** The value was 0.

**Q.** With `Cc1c(CN2CCN(S(C)(=O)=O)CC2)sc2c(N3CCOCC3)nc(-c3cnc(N)nc3)nc12` (2.5 µM) as the compound, how does the “number of time points” value read?
**A.** Its value is 0.

**Q.** For `CC(C)CN(CC(=O)N1CCN(CC(OCc2ccc3ccccc3c2)c2ccc(Cl)cc2Cl)CC1)CC(C)C` (configuration not stated) [LYN-1604 (dihydrochloride)] (2.5 µM), which “number of time points” value is on record?
**A.** The value was 0.

**Q.** Which “number of time points” value does the source give for `CC/C=C\C/C=C\C/C=C\CCCCCCCC(=O)O` [α-Linolenic acid] (10 µM) here?
**A.** The value was 0.

**Q.** Which “number of time points” value does the source give for `Nc1ncnc2c1c(-c1ccc(Oc3ccccc3)cc1)nn2C1CCNCC1` [N-piperidine Ibrutinib (hydrochloride)] (10 µM) here?
**A.** Its value is 1.

**Q.** `CC(C)NC(=O)N1CC[C@H](NC2=Nc3cc(F)ccc3N(CC(F)F)c3ccc(Cl)cc32)C1` (10 µM) was tested. Which “number of time points” value did it give?
**A.** Its value is 0.

**Q.** For `O=C(Nc1cc(Oc2cc(F)c(NC(=O)C3(C(=O)Nc4ccc(F)cc4)CC3)cc2F)ccn1)C1CC1` [Altiratinib] (10 µM), which “number of time points” value is on record?
**A.** Its value is 0.

**Q.** With `COCCOc1ccc(-c2cn(-c3ccccc3)c3nc[nH]c(=O)c23)cc1` (10 µM) as the compound, how does the “number of time points” value read?
**A.** The value was 0.

**Q.** For `Cc1ccc2nc(NC(=O)CSc3nc4c(c(=O)n3-c3ccccc3)SCC4)sc2c1` (2 µM), which “number of time points” value is on record?
**A.** Its value is 0.

**Q.** For `C[C@]1(O)CCC[C@@H]1n1c(=O)c(C(F)F)cc2cnc(NC3CCN(S(C)(=O)=O)CC3)nc21` (10 µM), which “number of time points” value is on record?
**A.** The value was 0.

**Q.** With `NC1(Cc2ccc(Cl)cc2)CCN(c2ncnc3[nH]ccc23)CC1` (10 µM) as the compound, how does the “number of time points” value read?
**A.** The value was 0.

**Q.** For `O=C(O)c1cc(O)ccc1O` [2,5-Dihydroxybenzoic acid] (10 µM), which “number of time points” value is on record?
**A.** Its value is 0.
